Source: PMC314469, “Protein Interaction Networks by Proteome Peptide Scanning” (PLoS Biology, 2004)
Results are given in words; binding and its absence hold for the method and conditions named. Sequences can lack the tags named with a protein.

Target: T1, GST-Abp1 SH3 domain (S. cerevisiae) (UniProt P15891)
T1 sequence: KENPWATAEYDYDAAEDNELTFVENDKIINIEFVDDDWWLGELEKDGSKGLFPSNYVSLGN
Test: SPR; BIAcoreX; GST-fused SH3 domains (and GST as control) amine-coupled to CM5 chips; peptides flowed at 25°C in 10 mM HEPES, 150 mM NaCl, 3.4 mM EDTA, 0.005% P20, pH 7.4, 15 μl/min, 500 μM to 65 nM; steady-state model; both purified

binding: no binding (tested: 100 μM)
Binder: RRPPPPPIPSTQKP [Ynl094w peptide …]
